Source: patent US20080280293A1
Results are given in words; binding and its absence hold for the method and conditions named. Binding seen in cells or lysates may run through a third protein. Some binding calls cover weakened binding; strength is not graded here. Tags and fused reporters may be left off the sequences shown.

The chains behind the UniProt entries cited, without tags or fusion partners. Where a name states a change or a piece, a line headed by the entry shows the natural chain unless it says otherwise.
UniProt O60603: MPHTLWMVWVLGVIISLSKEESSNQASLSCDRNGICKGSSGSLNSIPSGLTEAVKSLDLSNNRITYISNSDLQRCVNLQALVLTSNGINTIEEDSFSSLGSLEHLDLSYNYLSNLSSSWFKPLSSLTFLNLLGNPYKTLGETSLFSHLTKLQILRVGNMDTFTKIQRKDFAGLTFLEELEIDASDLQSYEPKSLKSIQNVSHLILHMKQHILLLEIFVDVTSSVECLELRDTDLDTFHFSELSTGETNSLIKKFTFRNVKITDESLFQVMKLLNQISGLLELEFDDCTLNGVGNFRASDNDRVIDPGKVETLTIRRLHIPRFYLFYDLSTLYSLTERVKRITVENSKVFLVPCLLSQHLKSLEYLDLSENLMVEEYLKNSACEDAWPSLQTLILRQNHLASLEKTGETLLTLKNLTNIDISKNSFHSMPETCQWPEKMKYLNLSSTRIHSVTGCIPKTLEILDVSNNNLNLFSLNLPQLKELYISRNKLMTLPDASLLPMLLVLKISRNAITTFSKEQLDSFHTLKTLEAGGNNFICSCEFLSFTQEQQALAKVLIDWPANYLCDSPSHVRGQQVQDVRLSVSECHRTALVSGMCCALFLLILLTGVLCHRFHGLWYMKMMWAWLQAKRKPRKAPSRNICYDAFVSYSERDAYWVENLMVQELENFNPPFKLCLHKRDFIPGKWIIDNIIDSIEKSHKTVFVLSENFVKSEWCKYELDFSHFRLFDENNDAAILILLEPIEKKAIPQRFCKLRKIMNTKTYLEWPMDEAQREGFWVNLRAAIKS

Experiments:
[1] = target: HA-tag-fused TLR2 (human) (UniProt O60603); assay: co-immunoprecipitation from transfected COS7 cells: IP with FLAG antibody, western blot with HA antibody
[2] = target: T1, HA-tag-fused TLR1 (human) (UniProt Q15399); assay: as above
T1 sequence: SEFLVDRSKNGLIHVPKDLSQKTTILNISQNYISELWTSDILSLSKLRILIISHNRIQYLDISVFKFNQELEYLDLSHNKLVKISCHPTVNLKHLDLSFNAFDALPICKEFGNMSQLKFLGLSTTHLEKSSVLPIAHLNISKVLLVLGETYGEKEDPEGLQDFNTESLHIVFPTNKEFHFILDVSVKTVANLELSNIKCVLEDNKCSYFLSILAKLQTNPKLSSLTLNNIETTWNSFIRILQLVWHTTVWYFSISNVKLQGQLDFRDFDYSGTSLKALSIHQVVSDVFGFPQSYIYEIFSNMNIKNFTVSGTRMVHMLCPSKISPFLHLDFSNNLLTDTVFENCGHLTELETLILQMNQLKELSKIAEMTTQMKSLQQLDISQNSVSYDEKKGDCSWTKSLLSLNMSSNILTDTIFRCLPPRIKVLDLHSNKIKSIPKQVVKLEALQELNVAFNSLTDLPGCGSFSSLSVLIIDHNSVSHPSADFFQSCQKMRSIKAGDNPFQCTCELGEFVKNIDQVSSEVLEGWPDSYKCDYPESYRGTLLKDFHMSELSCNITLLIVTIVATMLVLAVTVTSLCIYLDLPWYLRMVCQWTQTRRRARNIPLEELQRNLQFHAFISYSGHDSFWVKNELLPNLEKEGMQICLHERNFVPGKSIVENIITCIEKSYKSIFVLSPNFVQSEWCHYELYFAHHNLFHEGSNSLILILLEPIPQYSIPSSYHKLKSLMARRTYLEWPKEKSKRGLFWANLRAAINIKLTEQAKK

[3] = target: intracellular domain of TLR2 fused with S-tag (human); assay: co-immunoprecipitation from co-transfected COS7 cells: IP with S-Protein, western blot with S-Protein or anti-FLAG antibody

Measured: binding

B1: FLAG-tag-fused galectin-2 (protein, not shown: small tags and cut ends)
chain: MTGELEVKNMDMKPGSTLKITGSIADGTDGFVINLGQGTDKLNLHFNPRFSESTIVCNSLDGSNWGQEQREDHLCFSPGSEVKFTVTFESDKFKVKLPDGHELTFPNRLGHSHLSYLSVRGGFNMSSFKLKE
binds: all assays above
